Reference: article PMC5111884
These are yes or no findings as the source states them, for the method shown. Binding seen in cells or lysates may run through a third protein. Some binding calls cover weakened binding; strength is not graded here. Tags and fused reporters may be left off the sequences shown.

By UniProt entry, the sequences of proteins in these tests, tags left out.
UniProt P53762: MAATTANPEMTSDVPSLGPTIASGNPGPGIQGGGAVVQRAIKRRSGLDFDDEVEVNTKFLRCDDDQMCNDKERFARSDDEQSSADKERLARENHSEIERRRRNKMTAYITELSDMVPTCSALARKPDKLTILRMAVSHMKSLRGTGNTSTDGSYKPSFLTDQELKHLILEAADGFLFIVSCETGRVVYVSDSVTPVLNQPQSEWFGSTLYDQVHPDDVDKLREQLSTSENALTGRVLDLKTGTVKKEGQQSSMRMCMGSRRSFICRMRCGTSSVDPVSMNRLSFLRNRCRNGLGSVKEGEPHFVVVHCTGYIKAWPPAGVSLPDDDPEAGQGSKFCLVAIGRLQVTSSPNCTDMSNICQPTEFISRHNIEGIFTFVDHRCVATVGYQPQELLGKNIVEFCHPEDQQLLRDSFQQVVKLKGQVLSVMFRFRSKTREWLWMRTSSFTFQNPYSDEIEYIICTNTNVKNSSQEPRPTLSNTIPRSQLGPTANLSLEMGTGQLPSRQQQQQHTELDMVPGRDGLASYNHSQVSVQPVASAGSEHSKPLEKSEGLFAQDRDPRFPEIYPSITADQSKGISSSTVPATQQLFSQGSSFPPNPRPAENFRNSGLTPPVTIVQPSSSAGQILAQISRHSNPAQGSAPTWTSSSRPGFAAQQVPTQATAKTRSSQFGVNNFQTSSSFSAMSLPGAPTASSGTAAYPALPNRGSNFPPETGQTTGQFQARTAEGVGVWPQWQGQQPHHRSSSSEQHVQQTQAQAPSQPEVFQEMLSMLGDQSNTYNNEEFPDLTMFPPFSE
UniProt Q61324: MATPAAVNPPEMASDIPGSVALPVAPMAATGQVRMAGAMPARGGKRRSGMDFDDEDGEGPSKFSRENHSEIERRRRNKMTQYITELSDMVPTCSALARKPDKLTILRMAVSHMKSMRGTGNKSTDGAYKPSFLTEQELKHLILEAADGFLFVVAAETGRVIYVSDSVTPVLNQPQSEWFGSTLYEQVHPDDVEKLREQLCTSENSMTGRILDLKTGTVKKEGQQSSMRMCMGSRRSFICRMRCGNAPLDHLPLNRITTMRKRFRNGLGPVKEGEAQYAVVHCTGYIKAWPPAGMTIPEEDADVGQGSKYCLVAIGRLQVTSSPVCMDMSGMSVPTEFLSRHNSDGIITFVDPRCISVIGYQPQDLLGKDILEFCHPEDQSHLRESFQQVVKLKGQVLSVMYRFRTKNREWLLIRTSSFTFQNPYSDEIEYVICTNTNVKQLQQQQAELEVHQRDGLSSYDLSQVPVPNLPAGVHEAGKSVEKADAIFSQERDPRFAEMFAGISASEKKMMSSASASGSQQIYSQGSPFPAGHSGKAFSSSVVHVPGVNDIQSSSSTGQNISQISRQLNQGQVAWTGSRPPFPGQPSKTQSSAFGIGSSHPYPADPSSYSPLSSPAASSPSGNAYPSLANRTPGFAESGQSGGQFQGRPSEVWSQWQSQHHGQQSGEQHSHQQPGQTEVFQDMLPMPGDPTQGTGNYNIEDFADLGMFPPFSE

Experiments:
[1] = biological target: full-length ARNT (pCMV-Tag1-ARNT), Flag-tagged (mouse) (UniProt P53762); experiment: co-IP; HEK293T cells co-transfected with pCMV-Tag4 (Myc) class I partner and pCMV-Tag1 (Flag) ARNT or ARNT2, WT or mutants; 10 nM 2,3,7,8-tetrachlorodibenzo-p-dioxin added in the case of AHR; immunoprecipitation as in Wu et al., 2015
[2] = biological target: mouse ARNT2 (pCMV-Tag1-ARNT2), C-terminal Flag-tagged (mouse) (UniProt Q61324); experiment: as above

binding [1]	binding [2]	Binder
binds	–	full-length mouse NPAS3, C-terminal Myc-tagged (protein, UniProt Q9QZQ0 1-925) MGRAGAAANGTPQNVQGITSYQQRITAQHPLPNQSECRKIYRYDGIYCESTYQNLQALRKEKSRDAARSRRGKENFEFYELAKLLPLPAAITSQLDKASIIRLTISYLKMRDFANQGDPPWNLRMEGPPPNTSVKGAQRRRSPSALAIEVFEAHLGSHILQSLDGFVFALNQEGKFLYISETVSIYLGLSQVELTGSSVFDYVHPGDHVEMAEQLGMKLPPGRGLLSQGTTEDAASSASSSSQSETPEPVETTSPSLLTTDNTLERSFFIRMKSTLTKRGVHIKSSGYKVIHITGRLRLRVPLSHGRTVPSQIMGLVVVAHALPPPTINEVRIDCHMFVTRVNMDLNIIYCENRISDYMDLTPVDIVGKRCYHFIHAEDVEGIRHSHLDLLNKGQCVTKYYRWMQKNGGYIWIQSSATIAINAKNANEKNIIWVNYLLSNPEYKDTPMDIAQLPHLPEKASESSETSDSESDSKDTSGITEDNENSKSDEKGNQSENSEDPEPDRKKSGSACDNDMNCNDDGHSSSNPDSRDSDDSFEHSDFEHPKAAEDGFGALGPMQIKVERYVESEADLRLQPCESLTSDSAKDSDSANEAGAQASSKHQKRKRRRKRQKGGSASRRRLSSASSPGLDAGLVEPPRLLSSPHSASVLKIKTEIAEPINFDNESSIWNYPPNREISRNESPYSMTKPPTSEHFPSPQGQGGSIGGGGALHVAIPDSVLTPPGADGTAGRKTQFSGTAPVPSDPLSPPLSASPRDKHPGGGAGSGGGGPGASNSLLYTGDLEALQRLQAGNVVLPLVHRVTGTLAATSTAAQRVYTTGTIRYAPAEVTLAMQGNLLPNAHAVNFVDVNSPGFGLDPKTPMEMLYHHVHRLNMSGPFGGAVSAASLTQMPGGNVFTTAEGLFSTLPFPVYSNGIHAAQTLERKED
binds	binds	full-length mouse NPAS4, C-terminal Myc-tagged (protein, UniProt Q8BGD7 1-802) MYRSTKGASKARRDQINAEIRNLKELLPLAEADKVRLSYLHIMSLACIYTRKGVFFAGGTPLAGPTGLLSAQELEDIVAALPGFLLVFTAEGKLLYLSESVSEHLGHSMVDLVAQGDSIYDIIDPADHLTVRQQLTMPSALDADRLFRCRFNTSKSLRRQSSGNKLVLIRGRFHAHPPGAYWAGNPVFTAFCAPLEPRPRPGPGPGPGPGPASLFLAMFQSRHAKDLALLDVSESVLIYLGFERSELLCKSWYGLLHPEDLAQASSQHYRLLAESGDIQAEMVVRLQAKHGGWTWIYCMLYSEGPEGPFTANNYPISDTEAWSLRQQLNSEDTQAAYVLGTPAVLPSFSENVFSQEQCSNPLFTPSLGTPRSASFPRAPELGVISTPEELPQPSKELDFSYLPFPARPEPSLQADLSKDLVCTPPYTPHQPGGCAFLFSLHEPFQTHLPPPSSSLQEQLTPSTVTFSEQLTPSSATFPDPLTSSLQGQLTESSARSFEDQLTPCTSSFPDQLLPSTATFPEPLGSPAHEQLTPPSTAFQAHLNSPSQTFPEQLSPNPTKTYFAQEGCSFLYEKLPPSPSSPGNGDCTLLALAQLRGPLSVDVPLVPEGLLTPEASPVKQSFFHYTEKEQNEIDRLIQQISQLAQGVDRPFSAEAGTGGLEPLGGLEPLNPNLSLSGAGPPVLSLDLKPWKCQELDFLVDPDNLFLEETPVEDIFMDLSTPDPNGEWGSGDPEAEVPGGTLSPCNNLSPEDHSFLEDLATYETAFETGVSTFPYEGFADELHQLQSQVQDSFHEDGSGGEPTF
binds	–	full-length mouse NPAS1, C-terminal Myc-tagged (protein, UniProt P97459 1-594) MATPYPRSGGRGEVKCGGGRGAGVPWDFLPGLMVKAPPGPCLQAQRKEKSRNAARWRRGKENLEFFELAKLLPLPGAISSQLDKASIVRLSVTYLRLRRFAALGAPPWGLRAVGPPAGLAPGRRGPVALVSEVFEQHLGGHILQSLDGFVFALNQEGKFLYISETVSIYLGLSQVELTGSSVFDYIHPGDHSEVLEQLGLRAASIGPPTPPSVSSSSSSSSSSLVDTPEIEASPTEASPAFRAQERSFFVRMKSTLTKRGLNVKASGYKVIHVTGRLRARALGLVALGHTLPPAPLAELPLHGHMIVFRLSLGLTILACESRVSDHMDMGPSELVGRSCYQFVHGQDATRIRQSHLDLLDKGQVVTGYYRWLQRAGGFVWLQSVATVAGNGKSTGEHHVLWVSHVLSNAEGSQTPLDAFQLPAIVSQEEPSRPGPEPTEEEPPVDGKQAVPADQDKDKDPQARGKRIKVEASPKEARGSEDSGEEELSDPPAPPRPEFTSVIRAGALKHDPVLPWGLTTPGDPSPALLHAGFLPPVVRGLCTPGTIRYGPAELSLMYPHLHRLGAGPSLPEAFYPTLGLPYPGPTGTRVQRKGD
